Test system: foot-licking response of mouse
Test: Foot-licking response of mouse caused by 2.5% formaldehyde
Format: in vivo
Conditions: Morphine 10 (mg) SC, Eulektrol 0.15 ml/kg

Q: What does the source list for `CN1CC[C@]23c4c5ccc(O)c4O[C@H]2[C@@H](O)C=C[C@H]3[C@H]1C5.Cl` [Morphine, morphine hydrochloric acid]?
A: Mice foot-licking counts after SC 2.5% formaldehyde (15 minutes): 1.2860 ± 2.630 Number; Inhibition rate of foot-licking counts: more than 98%
